Measurements reported in PubChem BioAssay AID1159578 (Peter MacCallum Cancer Centre, 2015).
Purpose: 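siRNA pools altering how lymphatic endothelial cells close a scratch wound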 (primary screen). Cell system: human lymphatic endothelial cells. Knock-down reagent: siRNA pool against human genes, 40 nM. Time to read-out: 48 h after transfection. Measured: 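Cells stained with dye and imaged after a scratch; covered wound area and nuclei counted, duplicates averaged, migration set against mock wells and turned into a robust z-score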. Direction: migration robust z-score: higher = faster migration into the scratch; migration relative to mock: higher = more scratch area covered than mock; nuclei per well: higher = more cells in the well. Hit rule: 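Migration changed when robust z exceeds 2 or falls below -2 and mean nuclei number is at least 3300; otherwise not called changed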. Calls: active = migration changed; inactive = no migration change, or too few cells.
The whole screen tested about 18,000 reagents; this is an unselected part. In the full data, about 1,030 (5.7%) are marked active. 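Inactive calls also include pools with fewer than 3300 nuclei, whose migration was not assessed.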 Raw values are not corrected between plates. A number with no mark means an inactive call.

Target gene | migration robust z-score | migration class with cell-count check | migration relative to mock | nuclei per well, duplicate mean
GJA3 | -0.26 | migration z between -2 and 2; enough cells | 0.76 | 5764
FAM177A1 | 0.02 | migration z between -2 and 2; enough cells | 0.88 | 4694
DACT1 | 0.46 | migration z between -2 and 2; enough cells | 1.01 | 5492
RPL37A | -2.16 (active) | migration z below -2; enough cells | 0.33 | 3854
FOLR1 | 0.11 | migration z between -2 and 2; enough cells | 0.82 | 3734
FOLR2 | -0.68 | migration z between -2 and 2; enough cells | 0.68 | 3425
OLA1 | 0.78 | migration z between -2 and 2; enough cells | 1.09 | 6426
KIAA1143 | -0.18 | migration z between -2 and 2; enough cells | 0.84 | 5746
USP16 | -2.18 (active) | migration z below -2; enough cells | 0.38 | 4284
HMCN1 | 1.03 | migration z between -2 and 2; enough cells | 1.01 | 5152
CNOT4 | 0.6 | migration z between -2 and 2; enough cells | 0.92 | 6163
TIPARP | -0.86 | migration z between -2 and 2; enough cells | 0.64 | 4918
BCAR3 | -0.22 | migration z between -2 and 2; enough cells | 0.83 | 5642
PVALB | -0.12 | migration z between -2 and 2; enough cells | 0.86 | 5902
ZDHHC18 | 0.57 | migration z between -2 and 2; enough cells | 1.04 | 5832
PRTN3 | -2.57 | under 3300 nuclei; migration not judged | 0.31 | 2204
LIPK | 0.5 | migration z between -2 and 2; enough cells | 1.02 | 5593
LOC653978 (retired record) | 0.6 | migration z between -2 and 2; enough cells | 0.92 | 6186
MYEOV | 1.66 | migration z between -2 and 2; enough cells | 1.31 | 6088
CLIC6 | 0.39 | migration z between -2 and 2; enough cells | 0.88 | 5443
MLF1 | -0.54 | migration z between -2 and 2; enough cells | 0.74 | 4956
PTPRM | 0.16 | migration z between -2 and 2; enough cells | 0.84 | 5424
SRPK2 | -1.58 | migration z between -2 and 2; enough cells | 0.5 | 3403
